For the assay, the target named is T1, SNAP-BG, rat betaglycan with an N-terminal SNAP-tag, on HEK293T cells (rat) (UniProt P26342).
T1 sequence (chain, SNAP-tag ligand conjugated to a fluorescent dye (CF567/CF568)): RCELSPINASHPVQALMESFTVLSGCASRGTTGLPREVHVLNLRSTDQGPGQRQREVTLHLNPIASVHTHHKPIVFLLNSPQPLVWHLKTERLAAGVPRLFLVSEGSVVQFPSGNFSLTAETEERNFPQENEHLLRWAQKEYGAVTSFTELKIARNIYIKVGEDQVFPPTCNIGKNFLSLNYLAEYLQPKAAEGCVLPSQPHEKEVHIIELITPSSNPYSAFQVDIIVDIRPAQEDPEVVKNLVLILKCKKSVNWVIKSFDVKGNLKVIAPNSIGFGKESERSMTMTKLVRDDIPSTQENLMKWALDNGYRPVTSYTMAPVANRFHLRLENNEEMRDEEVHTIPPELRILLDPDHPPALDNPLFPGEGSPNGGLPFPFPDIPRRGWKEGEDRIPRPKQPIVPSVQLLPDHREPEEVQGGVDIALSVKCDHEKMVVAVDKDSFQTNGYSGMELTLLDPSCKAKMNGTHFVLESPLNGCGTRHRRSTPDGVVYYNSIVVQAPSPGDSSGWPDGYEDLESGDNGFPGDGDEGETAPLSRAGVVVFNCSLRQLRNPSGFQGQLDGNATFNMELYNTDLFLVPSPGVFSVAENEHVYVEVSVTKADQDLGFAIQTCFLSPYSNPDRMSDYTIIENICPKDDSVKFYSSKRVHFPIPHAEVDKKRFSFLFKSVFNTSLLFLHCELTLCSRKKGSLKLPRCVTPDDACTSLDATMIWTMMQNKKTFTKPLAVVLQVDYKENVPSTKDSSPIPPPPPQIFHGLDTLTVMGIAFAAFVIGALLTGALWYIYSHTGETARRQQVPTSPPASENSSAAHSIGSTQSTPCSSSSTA
Put plainly: competition binding assay on cells, confocal microscopy; HEK293T cells stably expressing SNAP-BG; 20 ng/ml fluorescently labeled InhA, after 10 min excess of unlabeled ligand; ratio of SNAP-BG to ligand signal; only the binder purified.

By UniProt entry, the sequences of proteins in these tests, tags left out. Where a name states a change or a piece, a line headed by the entry shows the natural chain unless it says otherwise.
UniProt P05111: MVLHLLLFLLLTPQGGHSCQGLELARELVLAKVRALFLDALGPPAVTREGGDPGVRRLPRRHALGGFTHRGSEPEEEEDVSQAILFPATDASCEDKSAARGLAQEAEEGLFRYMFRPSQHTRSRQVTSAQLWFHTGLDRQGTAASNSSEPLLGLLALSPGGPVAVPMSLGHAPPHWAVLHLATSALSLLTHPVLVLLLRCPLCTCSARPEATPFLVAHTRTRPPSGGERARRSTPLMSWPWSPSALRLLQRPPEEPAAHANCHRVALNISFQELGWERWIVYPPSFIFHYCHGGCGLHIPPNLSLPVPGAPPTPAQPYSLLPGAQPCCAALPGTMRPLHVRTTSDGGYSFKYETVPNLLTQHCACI

No constants are given. Whether binding was seen depends on the method and setting. Some results given as binding are weak or reduced against the parent protein; the word gives no strength. Sequences can lack the tags named with a protein.

“fluorescently labeled inhibin A (CF640R) (from UniProt P05111 233-366; P08476 311-426) (ligand)”: the binding result is “binds”.
The value for “inhibin A (InhA), mature heterodimer, unlabelled (from UniProt P05111 233-366; P08476 311-426) (ligand)” was “binds”.

The values above are taken from article PMC11865472.
